Results deposited as PubChem BioAssay AID1671195 (Yale University, 2021)
Screen: 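Knockdowns that increase or decrease uptake of fluorescent LDL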 (primary screen). System: human Huh7 hepatoma cells. Reagent: siRNA pool against human genes, 18 nM. Timing: about 2 to 2.5 days of knockdown, then 8 h LDL uptake. Conditions: DiI-labelled LDL at 30 µg/ml for 8 h, in lipoprotein-deficient serum medium. Measurement: 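Per-cell DiI-LDL intensity by automated imaging; well means scaled to the plate median and given as a robust z-score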. Scale: robust z-score: higher = more LDL uptake after knockdown. Call rule: 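Active when two or more replicates show a robust z-score above 2 or below -2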.
Here is one part, drawn at random, of about 22,000 deposited reagents. Over the whole deposit, about 1,510 (6.9%) were called active. 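Active includes knockdowns raising or lowering LDL uptake; positive z-scores mean more uptake, negative mean less.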

gene | robust z-score, replicate 1 | robust z-score, replicate 2 | robust z-score, replicate 3 | outcome
OR52E2 (olfactory receptor family 52 subfamily E member 2) | 0.478 | 0.103 | 0.784 | inactive
NEU4 (neuraminidase 4) | 1.15 | 1.36 | 1.63 | inactive
USP7P1 (USP7 pseudogene 1) | -0.792 | -0.63 | -0.906 | inactive
POC1B (POC1 centriolar protein B) | -0.55 | -0.342 | -0.531 | inactive
LILRA5 (leukocyte immunoglobulin like receptor A5) | 1.18 | 0.173 | 0.776 | inactive
GZF1 (GDNF inducible zinc finger protein 1) | 2.23 | 1.64 | 2.54 | active
SPIRE2 (spire type actin nucleation factor 2) | -0.357 | -0.428 | 0.0223 | inactive
ZNF566 (zinc finger protein 566) | -1.67 | -1.13 | -1.93 | inactive
LOC399763 (retired record) | -0.47 | -0.0391 | -0.39 | inactive
CITED4 (Cbp/p300 interacting transactivator with ED-rich tail 4) | -0.227 | -0.0463 | -0.273 | inactive
LRRC3B (leucine rich repeat containing 3B) | 0.544 | 0.784 | 0.714 | inactive
MIER3 (MIER family member 3) | -0.56 | -0.152 | 0.216 | inactive
CDH2 (cadherin 2) | 0.464 | 0.446 | 0.126 | inactive
TUBB4A (tubulin beta 4A class IVa) | -0.639 | -0.629 | -0.857 | inactive
SMC3 (structural maintenance of chromosomes 3) | 0.548 | -1.09 | -0.838 | inactive
CHCHD4 (coiled-coil-helix-coiled-coil-helix domain containing 4) | -1.09 | 0.0385 | -0.733 | inactive
DKC1 (dyskerin pseudouridine synthase 1) | 0.624 | 1.1 | 1.53 | inactive
CHRFAM7A (CHRNA7 (exons 5-10) and FAM7A (exons A-E) fusion) | -0.157 | -0.25 | -0.402 | inactive
AXL (AXL receptor tyrosine kinase) | -0.679 | -0.932 | -0.888 | inactive
CCDC81 (coiled-coil domain containing 81) | 0.0113 | 0.317 | 0.0268 | inactive
ANXA5 (annexin A5) | -0.632 | -1.38 | -0.85 | inactive
PDE1B (phosphodiesterase 1B) | 0.254 | -1.11 | -0.695 | inactive
EHMT1 (euchromatic histone lysine methyltransferase 1) | 1.58 | 4.75 | 2.37 | active
ATF7IP2 (activating transcription factor 7 interacting protein 2) | 2.39 | 2.92 | 2.17 | active
MIS18A (MIS18 kinetochore protein A) | -1.79 | -1.38 | -1.07 | inactive
LOC442170 (retired record) | 1.46 | 1.17 | 1.4 | inactive
REXO6P (RNA exonuclease 6, pseudogene) | 3.35 | 3.08 | 2.63 | active
DDX11L2 (DEAD/H-box helicase 11 like 2 (pseudogene)) | -0.349 | -0.225 | -0.245 | inactive
TEX26 (testis expressed 26) | 0.1 | 0.292 | 0.222 | inactive
TASL (TLR adaptor interacting with endolysosomal SLC15A4) | 0.667 | 0.163 | 0.103 | inactive
KRT15 (keratin 15) | -0.326 | 0.416 | -0.056 | inactive
MTSS2 (MTSS I-BAR domain containing 2) | 0.0263 | -0.96 | -1.13 | inactive
LOC441885 (retired record) | -0.503 | -0.37 | -0.26 | inactive
OCIAD1 (OCIA domain containing 1) | -1.04 | -1.19 | -0.777 | inactive
ITPKB (inositol-trisphosphate 3-kinase B) | 1.24 | 1.37 | 1.46 | inactive
ADAM18 (ADAM metallopeptidase domain 18) | 1 | 0.517 | 1.08 | inactive
LINC00474 (long independently transcribed non-coding RNA 474) | -0.519 | -1.16 | -0.779 | inactive
LOC440538 (retired record) | -2.53 | -2.92 | -2.54 | active
HTRA1 (HtrA serine peptidase 1) | 2.06 | 1.92 | 2.58 | active
SCGB3A2 (secretoglobin family 3A member 2) | -0.34 | 0.115 | 0.282 | inactive
DSG2 (desmoglein 2) | -0.177 | 0.174 | 0.438 | inactive
OR4C11 (olfactory receptor family 4 subfamily C member 11) | 0.181 | -0.361 | 0.105 | inactive
SPHK2 (sphingosine kinase 2) | 0.762 | 0.436 | 0.431 | inactive
SLC43A3 | 1.42 | 0.0435 | 0.792 | inactive
PISD (phosphatidylserine decarboxylase) | 1.64 | 0.876 | 1.24 | inactive
LOC389059 (retired record) | 1.35 | 1.54 | 1.58 | inactive
LOC389087 (retired record) | -0.0675 | 0.0687 | 0.279 | inactive
PFN4 (profilin family member 4) | 0.157 | 0.257 | 0.374 | inactive
NBEAL2 (neurobeachin like 2) | -1.16 | -0.0494 | -0.933 | inactive
NDUFAF8 (NADH:ubiquinone oxidoreductase complex assembly factor 8) | 1.24 | 0.891 | 1.23 | inactive
NFU1 (NFU1 iron-sulfur cluster scaffold) | -0.836 | -0.937 | -2.23 | inactive
PRM2 (protamine 2) | -2.23 | -0.486 | -2.42 | active
SERPINA4 (serpin family A member 4) | 0.116 | -0.446 | 0.613 | inactive
BCL2L11 (BCL2 like 11) | -0.358 | -0.773 | -0.934 | inactive
ARMCX5 (armadillo repeat containing X-linked 5) | -0.424 | -0.761 | -0.762 | inactive
CHCHD7 (coiled-coil-helix-coiled-coil-helix domain containing 7) | -2.44 | -2.38 | -2.3 | active
ZSWIM4 (zinc finger SWIM-type containing 4) | -0.28 | -0.333 | -0.397 | inactive
TMEM213 (transmembrane protein 213) | 0.562 | 1.12 | 0.537 | inactive
RPS7 (ribosomal protein S7) | -1.13 | -1.1 | -0.187 | inactive
SMURF1 (SMAD specific E3 ubiquitin protein ligase 1) | -0.254 | 0.12 | -1.13 | inactive
HILPDA (hypoxia inducible lipid droplet associated) | 0.0291 | -0.669 | 0.825 | inactive
CALCOCO1 (calcium binding and coiled-coil domain 1) | -0.306 | -1.18 | -0.924 | inactive
UROD (uroporphyrinogen decarboxylase) | -1.19 | -1.02 | -1.48 | inactive
CST2 (cystatin SA) | -0.355 | -1.02 | -0.391 | inactive
PRDM15 (PR/SET domain 15) | 0.00188 | 0.129 | 0.492 | inactive
UBE2Q2 (ubiquitin conjugating enzyme E2 Q2) | 0.041 | 1.81 | 1.58 | inactive
LOC388689 (retired record) | 1.97 | 1.07 | 0.874 | inactive
SLC20A2 | -0.764 | -1.31 | -1.04 | inactive
ZNF785 (zinc finger protein 785) | -1.35 | -0.648 | -1.53 | inactive
CFAP20 (cilia and flagella associated protein 20) | 0.535 | -0.909 | 0.104 | inactive
IL1R1 (interleukin 1 receptor type 1) | 0.6 | -0.0762 | 0.124 | inactive
KRTAP5-6 (keratin associated protein 5-6) | -0.77 | -1.77 | -1.35 | inactive
ZNF223 (zinc finger protein 223) | 0.688 | 1.23 | 0.439 | inactive
SLC4A4 | 1.95 | 2.44 | 2.97 | active
FSD2 (fibronectin type III and SPRY domain containing 2) | 1.53 | 1.43 | 2.11 | inactive
SRC (SRC proto-oncogene, non-receptor tyrosine kinase) | 0.0611 | 0.369 | -0.191 | inactive
TMPRSS2 (transmembrane serine protease 2) | 0.439 | 0.709 | -0.13 | inactive
LOC441047 (retired record) | -0.951 | -1.35 | -1.11 | inactive
LINC00269 (long independently transcribed non-coding RNA 269) | -1.03 | -1.47 | -1.63 | inactive
LOC392549 (retired record) | -1.04 | -0.206 | -0.929 | inactive
ZNF267 (zinc finger protein 267) | -0.18 | 0.191 | -0.0453 | inactive
NR2F1 (nuclear receptor subfamily 2 group F member 1) | 0.433 | -0.411 | 0.357 | inactive
SCML4 (Scm polycomb group protein like 4) | -0.0596 | 1.33 | -0.122 | inactive
SPMIP9 (sperm microtubule inner protein 9) | -0.966 | -1.46 | -1.05 | inactive
C19orf73 (chromosome 19 open reading frame 73) | -1.07 | -1.37 | -0.19 | inactive
LOC339065 (retired record) | -0.385 | -0.479 | -0.707 | inactive
RBM23 (RNA binding motif protein 23) | -0.537 | -0.932 | -0.211 | inactive

An excerpt from above, showing only “robust z-score, replicate 3”:
NDUFAF8 (NADH:ubiquinone oxidoreductase complex assembly factor 8) = 1.23
NFU1 (NFU1 iron-sulfur cluster scaffold) = -2.23
PRM2 (protamine 2) = -2.42
SERPINA4 (serpin family A member 4) = 0.613
BCL2L11 (BCL2 like 11) = -0.934
ARMCX5 (armadillo repeat containing X-linked 5) = -0.762
CHCHD7 (coiled-coil-helix-coiled-coil-helix domain containing 7) = -2.3
ZSWIM4 (zinc finger SWIM-type containing 4) = -0.397
TMEM213 (transmembrane protein 213) = 0.537
RPS7 (ribosomal protein S7) = -0.187
SMURF1 (SMAD specific E3 ubiquitin protein ligase 1) = -1.13
HILPDA (hypoxia inducible lipid droplet associated) = 0.825
CALCOCO1 (calcium binding and coiled-coil domain 1) = -0.924
